Patent US20090196930A1, “AEROSOLIZED NITRITE AND NITRIC OXIDE -DONATING COMPOUNDS AND USES THEREOF” (Aires Pharmaceuticals, Inc., priority 2007, published 2009)
Like-named read-outs stand apart in the source and are kept apart here.

O=NO [sodium nitrite]
Duration (Aeroneb Go, 277.8 mg loaded): 6.2 ± 1.1 min | FPD % (Aeroneb Go, 277.8 mg loaded): 14.4 ± 2.0% | Fine Particle Dose (Aeroneb Go, 277.8 mg loaded): 39.9 ± 5.2 mg | Inspired Dose (Aeroneb Go, 277.8 mg loaded): 74.6 ± 10.6 mg | Output (FPD/Min) (Aeroneb Go, 277.8 mg loaded): 6.5 ± 0.6 FPD/Min | Total Recovered (Aeroneb Go, 277.8 mg loaded): 97.5 ± 10.9 mg | Ultra Fine Particle Dose (Aeroneb Go, 277.8 mg loaded): 25.3 ± 3.6 mg | Residual Dose (Aeroneb Go, 277.8 mg loaded, only drug within the medication cup): 22.9 ± 4.8 mg | Duration (I-neb, 83.3 mg loaded): 12.5 ± 1.0 min | FPD % (I-neb, 83.3 mg loaded): 48.8 ± 1.9% | Fine Particle Dose (I-neb, 83.3 mg loaded): 40.7 ± 1.4 mg | Inspired Dose (I-neb, 83.3 mg loaded): 78.2 ± 3.0 mg | Output (FPD/Min) (I-neb, 83.3 mg loaded): 3.3 ± 0.2 FPD/Min | Residual Dose (I-neb, 83.3 mg loaded): 5.4 ± 0.8 mg | Total Recovered (I-neb, 83.3 mg loaded): 83.6 ± 2.7 mg | Ultra Fine Particle Dose (I-neb, 83.3 mg loaded): 21.5 ± 0.8 mg | Duration (PARI STAR, 277.8 mg loaded): 19.5 ± 0.7 min | Expired Dose (PARI STAR, 277.8 mg loaded): 49.5 ± 7.2 mg | FPD % (PARI STAR, 277.8 mg loaded): 32.4 ± 3.1% | Fine Particle Dose (PARI STAR, 277.8 mg loaded): 89.9 ± 7.8 mg | Inspired Dose (PARI STAR, 277.8 mg loaded): 106.3 ± 10.1 mg | Output (FPD/Min) (PARI STAR, 277.8 mg loaded): 4.6 ± 0.4 FPD/Min | Residual Dose (PARI STAR, 277.8 mg loaded): 115.4 ± 14.6 mg | Total Recovered (PARI STAR, 277.8 mg loaded): 271.2 ± 6.5 mg | Ultra Fine Particle Dose (PARI STAR, 277.8 mg loaded): 73.6 ± 7.0 mg
